According to the supplement of paper PMC10470496:
Where a name gives a salt, the structure may show the parent alone. The list shows a part of the results. Single values are uncertain, as repeats are few or missing.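 The strains were three CDC resistance-bank clinical C. auris isolates from clades III, IV and I, cultured in RPMI-1640 at 35°C. Growth was background-corrected OD600 versus vehicle-only wells on the same plate. A hit needed >50% inhibition in two or more strains plus a plate-corrected B-score exceeding 0.1.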

tested on: C. auris AR-387; test: growth relative to vehicle control (OD600 ratio) (fraction); higher = less inhibition; details: 10 µM; 24 h

Row | SMILES | growth
1 | CCOc1cc2ncc(C#N)c(Nc3ccc(OCc4ccccn4)c(Cl)c3)c2cc1NC(=O)/C=C/CN(C)C [Neratinib (HKI-272)] | 1.12
2 | CC(=O)Oc1ccccc1C(=O)O [Aspirin] | 0.89
3 | Cc1ccnc2c1NC(=O)c1cccnc1N2C1CC1 [Nevirapine] | 0.9
4 | O=C(O)c1ccc(-n2nc(-c3ccccc3O)nc2-c2ccccc2O)cc1 [Deferasirox] | 1.08
5 | CC(C(=O)O)c1ccc(C(=O)c2cccs2)cc1 (stereo not given) [Suprofen] | 1.1
6 | NC(=O)N1c2ccccc2C=Cc2ccccc21 [Carbamazepine] | 0.93
7 | NC(=O)c1cccc2cn(-c3ccc([C@@H]4CCCNC4)cc3)nc12 [Niraparib (MK-4827)] | 1.13
8 | COc1cc2nc(N(C)CCCNC(=O)C3CCCO3)nc(N)c2cc1OC (stereo not given) [Alfuzosin HCl] | 0.78
9 | CCn1cc(C(=O)O)c(=O)c2cc(F)c(N3CCNCC3)cc21 [Norfloxacin] | 0.94
10 | COc1nc(C)cnc1NS(=O)(=O)c1cccnc1-c1ccc(-c2nnco2)cc1 [Zibotentan (ZD4054)] | 0.84
11 | Cc1nc2n(c(=O)c1CCN1CCC(c3noc4cc(F)ccc34)CC1)CCCC2 [Risperidone] | 0.94
12 | O=C1O[C@H]([C@@H](O)CO)C(O)=C1O [Vitamin C] | 0.96
13 | CC(=O)Oc1cc2c(s1)CCN(C(C(=O)C1CC1)c1ccccc1F)C2 (stereo not given) [Prasugrel Hydrochloride] | 0.91
14 | CN(C)[C@@H](CCOc1cccc2ccccc12)c1ccccc1 [Dapoxetine HCl] | 1.08
15 | O=C(O)C1(C(=O)O)CCC1.[NH2-].[NH2-].[Pt+2] [Carboplatin] | 0.91
16 | COc1cc(N)c(Cl)cc1C(=O)NC1CCN(CCCOc2ccc(F)cc2)CC1OC (stereo not given) [Cisapride hydrate] | 0.72
17 | CC(=O)O[C@]1(C(C)=O)CC[C@H]2[C@@H]3C[C@H](C)C4=CC(=O)CC[C@]4(C)[C@H]3CC[C@@]21C [Medroxyprogesterone acetate] | 1.17
18 | O=C1C(O)=C([C@H]2CC[C@H](c3ccc(Cl)cc3)CC2)C(=O)c2ccccc21 [Atovaquone] | 0.76

2 compounds picked at random from those above, as already listed:
Row | SMILES | growth
4 | O=C(O)c1ccc(-n2nc(-c3ccccc3O)nc2-c2ccccc2O)cc1 [Deferasirox] | 1.08
5 | CC(C(=O)O)c1ccc(C(=O)c2cccs2)cc1 (stereo not given) [Suprofen] | 1.1

Next part:

Row | SMILES | growth
19 | COc1ccccc1Oc1c(NS(=O)(=O)c2ccc(C(C)(C)C)cc2)nc(-c2ncccn2)nc1OCCO [Bosentan Hydrate] | 0.71
20 | N=C(N)NCCC[C@H](N)C(=O)O [L-Arginine HCl (L-Arg)] | 1.09
21 | CC(C)Cc1ccc(C(C)C(=O)O)cc1 (stereo not given) [Ibuprofen Lysine] | 1.08
22 | COc1ccc2cc([C@H](C)C(=O)O)ccc2c1 [Naproxen Sodium] | 1.07
23 | Cc1cccc(-c2nn3c(c2-c2ccnc4ccc(C(N)=O)cc24)CCC3)n1 | 1.07
24 | COc1ccc(C(=O)c2ccccc2)c(O)c1 [Oxybenzone] | 0.74
25 | CO/N=C(\C(=O)N[C@@H]1C(=O)N2C(C(=O)OCOC(=O)C(C)(C)C)=C(/C=C\c3scnc3C)CS[C@H]12)c1csc(N)n1 [Cefditoren Pivoxil] | 1.03
26 | CC(C(=O)O)c1cccc(Oc2ccccc2)c1 (stereo not given) [Fenoprofen Calcium] | 0.99
27 | NC(=O)c1cnccn1 [Pyrazinamide] | 0.77
28 | CSc1nc2cc(Cl)c(Oc3cccc(Cl)c3Cl)cc2[nH]1 [Triclabendazole] | 0.01
29 | Cn1nnc2c(C(N)=O)ncn2c1=O [Temozolomide] | 0.71
30 | CCCSc1ccc2[nH]c(NC(=O)OC)nc2c1 [Albendazole] | 0.8
31 | CC(=O)O[C@]1(C(C)=O)CC[C@H]2[C@@H]3C[C@H](C)C4=CC(=O)C=C[C@]4(C)[C@@]3(F)[C@@H](O)C[C@@]21C [Fluorometholone Acetate] | 1.18
32 | CC(C)CCCCC(=O)N[C@@H](CCN)C(=O)N[C@H](C(=O)N[C@@H](CCN)C(=O)N[C@H]1CCNC(=O)[C@H]([C@@H](C)O)NC(=O)[C@H](CCN)NC(=O)[C@H](CCN)NC(=O)[C@H](CC(C)C)NC(=O)[C@@H](Cc2ccccc2)NC(=O)[C@H](CCN)NC1=O)[C@@H](C)O [Polymyxin B sulphate] | 0.74
33 | NCCc1c[nH]cn1 [Histamine 2HCl] | 1.11
34 | O=c1[nH]c(=O)n([C@H]2C[C@H](O)[C@@H](CO)O2)cc1F [Floxuridine] | 0.27
35 | N[C@@H](Cc1cc(I)c(Oc2cc(I)c(O)c(I)c2)c(I)c1)C(=O)O [L-Thyroxine] | 0.61
